Data reported in the supplement of paper PMC12823440, “Inhibitors supercharge kinase turnover through native proteolytic circuits” (Nature, 2025).
Where a name gives a salt, the structure may show the parent alone. The list shows a part of the results. The calls rarely recur for the same compound in another form.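 In K562 cells expressing nanoluciferase-fused kinases, luminescence was recorded at 4 h intervals between 2 and 18 h, normalized as percent of control with DMSO at 100% and a positive control at 0%. A significant (2 sigma) signal drop marks a time point as decreased. The authors' rule for a hit is not shown and takes in more than the number of time points.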

Amino acid sequences for entries named in this document (tags omitted). A change or cut given only in a name is not applied to a line headed by its entry.
UniProt Q9Y616: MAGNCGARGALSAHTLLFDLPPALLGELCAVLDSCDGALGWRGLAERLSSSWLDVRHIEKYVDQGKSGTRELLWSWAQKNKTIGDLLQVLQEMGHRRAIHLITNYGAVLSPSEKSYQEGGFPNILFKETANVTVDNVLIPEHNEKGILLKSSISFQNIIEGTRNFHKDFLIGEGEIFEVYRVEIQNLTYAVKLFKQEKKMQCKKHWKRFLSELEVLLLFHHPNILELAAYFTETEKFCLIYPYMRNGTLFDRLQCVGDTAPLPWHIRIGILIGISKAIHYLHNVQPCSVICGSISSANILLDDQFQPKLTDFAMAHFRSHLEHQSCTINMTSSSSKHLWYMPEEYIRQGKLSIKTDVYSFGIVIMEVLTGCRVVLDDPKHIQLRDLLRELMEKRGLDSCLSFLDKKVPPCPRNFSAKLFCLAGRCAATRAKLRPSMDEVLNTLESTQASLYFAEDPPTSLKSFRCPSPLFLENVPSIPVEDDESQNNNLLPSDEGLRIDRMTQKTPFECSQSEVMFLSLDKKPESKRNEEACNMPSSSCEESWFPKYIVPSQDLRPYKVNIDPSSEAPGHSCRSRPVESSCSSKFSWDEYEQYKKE
UniProt P23458: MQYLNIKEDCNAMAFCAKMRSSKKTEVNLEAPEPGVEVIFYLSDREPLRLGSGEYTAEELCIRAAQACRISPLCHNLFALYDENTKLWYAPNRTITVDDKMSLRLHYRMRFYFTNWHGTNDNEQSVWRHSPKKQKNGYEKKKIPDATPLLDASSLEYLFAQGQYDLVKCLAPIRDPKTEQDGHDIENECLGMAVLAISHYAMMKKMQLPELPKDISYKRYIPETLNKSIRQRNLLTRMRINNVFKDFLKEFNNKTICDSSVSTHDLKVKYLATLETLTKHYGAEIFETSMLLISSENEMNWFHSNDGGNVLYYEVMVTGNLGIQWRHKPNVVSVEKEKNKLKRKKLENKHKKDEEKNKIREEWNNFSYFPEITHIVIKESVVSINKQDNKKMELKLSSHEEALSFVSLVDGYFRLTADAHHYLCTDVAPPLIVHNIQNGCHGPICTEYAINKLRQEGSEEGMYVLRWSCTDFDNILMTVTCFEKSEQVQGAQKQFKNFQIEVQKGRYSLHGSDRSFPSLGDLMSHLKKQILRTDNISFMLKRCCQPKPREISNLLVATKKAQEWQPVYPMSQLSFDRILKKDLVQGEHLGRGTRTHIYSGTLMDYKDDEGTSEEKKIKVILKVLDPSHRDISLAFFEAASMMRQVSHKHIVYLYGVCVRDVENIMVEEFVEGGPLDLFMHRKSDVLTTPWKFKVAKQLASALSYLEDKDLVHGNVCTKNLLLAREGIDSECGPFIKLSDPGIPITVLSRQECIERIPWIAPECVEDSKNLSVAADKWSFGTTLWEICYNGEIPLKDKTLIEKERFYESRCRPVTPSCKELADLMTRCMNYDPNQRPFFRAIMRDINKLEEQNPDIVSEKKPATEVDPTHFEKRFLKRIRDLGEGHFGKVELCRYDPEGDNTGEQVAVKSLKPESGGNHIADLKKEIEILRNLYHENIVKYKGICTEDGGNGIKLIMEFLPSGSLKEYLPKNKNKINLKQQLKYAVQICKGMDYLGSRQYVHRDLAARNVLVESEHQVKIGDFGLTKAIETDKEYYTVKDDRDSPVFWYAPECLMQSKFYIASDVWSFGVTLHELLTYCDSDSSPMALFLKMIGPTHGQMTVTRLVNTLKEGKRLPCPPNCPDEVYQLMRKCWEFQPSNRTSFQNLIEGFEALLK
UniProt P06239: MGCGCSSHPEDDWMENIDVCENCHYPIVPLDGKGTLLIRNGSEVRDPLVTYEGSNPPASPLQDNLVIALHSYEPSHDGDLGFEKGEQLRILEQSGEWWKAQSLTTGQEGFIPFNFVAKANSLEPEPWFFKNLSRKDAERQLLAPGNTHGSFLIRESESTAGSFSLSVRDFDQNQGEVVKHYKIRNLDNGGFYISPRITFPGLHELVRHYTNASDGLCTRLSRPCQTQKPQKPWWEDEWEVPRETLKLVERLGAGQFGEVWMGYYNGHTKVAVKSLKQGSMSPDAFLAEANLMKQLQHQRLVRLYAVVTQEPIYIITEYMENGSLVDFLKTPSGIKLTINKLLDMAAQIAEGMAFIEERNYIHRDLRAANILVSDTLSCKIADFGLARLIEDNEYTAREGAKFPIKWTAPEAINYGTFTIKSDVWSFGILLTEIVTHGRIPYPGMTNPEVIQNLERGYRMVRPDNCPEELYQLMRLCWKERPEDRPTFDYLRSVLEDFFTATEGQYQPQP
UniProt P53667: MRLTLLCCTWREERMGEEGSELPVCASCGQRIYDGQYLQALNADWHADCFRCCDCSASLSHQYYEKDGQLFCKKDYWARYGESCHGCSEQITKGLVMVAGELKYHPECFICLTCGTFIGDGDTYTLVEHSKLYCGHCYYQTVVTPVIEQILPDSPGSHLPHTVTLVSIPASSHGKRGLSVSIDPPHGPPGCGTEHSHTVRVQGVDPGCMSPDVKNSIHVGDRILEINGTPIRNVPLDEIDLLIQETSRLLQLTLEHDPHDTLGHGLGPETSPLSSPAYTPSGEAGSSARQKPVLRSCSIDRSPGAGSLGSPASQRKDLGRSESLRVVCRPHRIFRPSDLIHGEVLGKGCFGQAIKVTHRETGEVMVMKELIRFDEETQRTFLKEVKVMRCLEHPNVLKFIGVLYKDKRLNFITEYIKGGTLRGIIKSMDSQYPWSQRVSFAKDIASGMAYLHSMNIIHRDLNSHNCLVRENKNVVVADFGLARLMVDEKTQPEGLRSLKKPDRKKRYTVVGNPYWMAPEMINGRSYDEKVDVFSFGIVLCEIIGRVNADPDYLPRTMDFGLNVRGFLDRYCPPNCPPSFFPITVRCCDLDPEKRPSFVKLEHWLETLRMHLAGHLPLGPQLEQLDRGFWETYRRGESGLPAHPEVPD
UniProt P53671: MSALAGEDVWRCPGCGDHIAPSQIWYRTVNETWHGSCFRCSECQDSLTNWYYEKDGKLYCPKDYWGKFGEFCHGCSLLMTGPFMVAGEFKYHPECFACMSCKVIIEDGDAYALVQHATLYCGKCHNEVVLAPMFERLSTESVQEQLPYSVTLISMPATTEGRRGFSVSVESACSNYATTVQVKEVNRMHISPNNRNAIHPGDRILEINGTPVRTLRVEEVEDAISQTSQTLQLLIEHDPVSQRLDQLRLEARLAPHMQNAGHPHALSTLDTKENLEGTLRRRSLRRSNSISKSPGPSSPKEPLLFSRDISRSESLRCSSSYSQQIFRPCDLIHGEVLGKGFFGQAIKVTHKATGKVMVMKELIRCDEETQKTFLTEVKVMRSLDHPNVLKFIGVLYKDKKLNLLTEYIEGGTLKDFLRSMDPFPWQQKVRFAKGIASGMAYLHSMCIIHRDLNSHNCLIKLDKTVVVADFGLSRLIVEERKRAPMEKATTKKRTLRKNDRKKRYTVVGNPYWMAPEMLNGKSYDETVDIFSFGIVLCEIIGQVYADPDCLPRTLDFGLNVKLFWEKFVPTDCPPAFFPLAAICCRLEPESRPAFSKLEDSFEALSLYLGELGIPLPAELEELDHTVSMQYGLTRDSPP
UniProt Q8IWU2: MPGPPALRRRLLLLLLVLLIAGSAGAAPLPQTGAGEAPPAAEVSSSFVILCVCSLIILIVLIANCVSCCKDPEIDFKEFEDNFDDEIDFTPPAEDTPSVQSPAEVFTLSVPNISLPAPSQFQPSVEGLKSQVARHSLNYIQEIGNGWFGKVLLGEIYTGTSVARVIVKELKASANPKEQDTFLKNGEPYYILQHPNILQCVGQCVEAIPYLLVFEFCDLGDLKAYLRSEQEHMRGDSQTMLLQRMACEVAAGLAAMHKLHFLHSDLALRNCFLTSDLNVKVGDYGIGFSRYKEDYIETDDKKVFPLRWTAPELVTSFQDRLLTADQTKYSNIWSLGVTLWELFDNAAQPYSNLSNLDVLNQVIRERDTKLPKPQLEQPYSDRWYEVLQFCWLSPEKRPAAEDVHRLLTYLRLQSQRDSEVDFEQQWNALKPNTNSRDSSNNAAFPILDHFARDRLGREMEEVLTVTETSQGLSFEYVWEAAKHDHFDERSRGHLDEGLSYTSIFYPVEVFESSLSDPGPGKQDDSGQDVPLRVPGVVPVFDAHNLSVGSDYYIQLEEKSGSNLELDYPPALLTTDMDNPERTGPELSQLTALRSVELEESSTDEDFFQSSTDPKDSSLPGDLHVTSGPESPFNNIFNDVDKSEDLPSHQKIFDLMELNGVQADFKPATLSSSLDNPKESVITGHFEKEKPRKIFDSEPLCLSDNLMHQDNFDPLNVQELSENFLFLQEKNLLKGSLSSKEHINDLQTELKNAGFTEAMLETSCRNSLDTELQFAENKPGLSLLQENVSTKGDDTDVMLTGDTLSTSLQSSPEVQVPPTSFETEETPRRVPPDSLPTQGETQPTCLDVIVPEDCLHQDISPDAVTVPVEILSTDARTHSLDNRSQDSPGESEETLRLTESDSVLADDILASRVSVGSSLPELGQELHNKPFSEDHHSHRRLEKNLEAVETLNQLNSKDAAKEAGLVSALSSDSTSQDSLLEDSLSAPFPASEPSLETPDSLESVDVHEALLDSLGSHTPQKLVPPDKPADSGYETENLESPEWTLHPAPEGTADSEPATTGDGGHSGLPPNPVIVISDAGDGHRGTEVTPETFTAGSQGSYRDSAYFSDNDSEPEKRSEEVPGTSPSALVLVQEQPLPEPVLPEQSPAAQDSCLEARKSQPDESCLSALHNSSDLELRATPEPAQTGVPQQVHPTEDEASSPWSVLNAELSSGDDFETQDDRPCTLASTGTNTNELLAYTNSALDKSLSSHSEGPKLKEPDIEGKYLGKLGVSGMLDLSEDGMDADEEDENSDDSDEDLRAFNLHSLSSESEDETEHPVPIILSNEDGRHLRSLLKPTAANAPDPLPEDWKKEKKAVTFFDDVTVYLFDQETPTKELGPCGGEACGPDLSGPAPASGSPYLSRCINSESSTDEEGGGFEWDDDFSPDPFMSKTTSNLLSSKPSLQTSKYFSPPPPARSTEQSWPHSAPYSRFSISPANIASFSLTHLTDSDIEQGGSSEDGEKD
UniProt P07948: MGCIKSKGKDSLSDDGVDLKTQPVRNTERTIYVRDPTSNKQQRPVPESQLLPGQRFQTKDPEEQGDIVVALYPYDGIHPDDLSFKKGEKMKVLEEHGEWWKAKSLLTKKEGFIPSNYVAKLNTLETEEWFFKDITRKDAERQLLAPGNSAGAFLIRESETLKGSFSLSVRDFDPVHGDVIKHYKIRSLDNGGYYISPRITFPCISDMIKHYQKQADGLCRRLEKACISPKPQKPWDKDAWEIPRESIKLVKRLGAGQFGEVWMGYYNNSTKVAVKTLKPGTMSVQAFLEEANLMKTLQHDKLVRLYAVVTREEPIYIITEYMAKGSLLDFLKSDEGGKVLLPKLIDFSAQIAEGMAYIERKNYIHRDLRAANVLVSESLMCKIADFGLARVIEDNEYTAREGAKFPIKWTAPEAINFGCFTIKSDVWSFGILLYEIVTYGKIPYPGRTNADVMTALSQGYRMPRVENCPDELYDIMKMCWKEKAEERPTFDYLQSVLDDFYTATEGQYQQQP
UniProt Q12851: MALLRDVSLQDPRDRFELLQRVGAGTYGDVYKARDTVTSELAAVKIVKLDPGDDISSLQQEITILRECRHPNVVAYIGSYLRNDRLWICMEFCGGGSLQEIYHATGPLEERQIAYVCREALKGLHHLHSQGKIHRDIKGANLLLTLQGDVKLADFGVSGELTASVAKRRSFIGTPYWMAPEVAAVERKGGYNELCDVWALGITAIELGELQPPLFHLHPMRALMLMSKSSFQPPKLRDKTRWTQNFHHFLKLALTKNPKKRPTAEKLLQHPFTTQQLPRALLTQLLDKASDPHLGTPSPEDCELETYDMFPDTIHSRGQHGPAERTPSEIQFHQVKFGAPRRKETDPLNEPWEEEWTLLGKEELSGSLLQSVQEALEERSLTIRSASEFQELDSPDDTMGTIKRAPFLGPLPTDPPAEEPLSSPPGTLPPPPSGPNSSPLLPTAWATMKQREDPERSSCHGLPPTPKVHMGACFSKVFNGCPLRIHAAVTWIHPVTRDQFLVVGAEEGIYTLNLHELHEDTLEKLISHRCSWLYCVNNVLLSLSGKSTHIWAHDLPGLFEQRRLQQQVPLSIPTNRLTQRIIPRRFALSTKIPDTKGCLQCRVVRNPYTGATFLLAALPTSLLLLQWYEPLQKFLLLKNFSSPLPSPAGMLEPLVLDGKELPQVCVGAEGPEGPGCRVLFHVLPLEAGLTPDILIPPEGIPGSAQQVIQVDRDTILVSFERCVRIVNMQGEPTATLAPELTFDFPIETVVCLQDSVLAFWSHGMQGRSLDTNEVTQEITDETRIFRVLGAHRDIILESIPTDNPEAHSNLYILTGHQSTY

Tests used:
Experiment in all cases: kinase-Nluc reporter destabilization hit call (1 = scored as downregulated) (binary); higher = compound decreases kinase abundance
Conditions in all cases: K562, 2-18 h
[1] = biological target: IRAK3 (UniProt Q9Y616)
[2] = biological target: JAK1 (UniProt P23458)
[3] = biological target: LCK (UniProt P06239)
[4] = biological target: LIMK1 (UniProt P53667)
[5] = biological target: LIMK2 (UniProt P53671)
[6] = biological target: LMTK2 (UniProt Q8IWU2)
[7] = biological target: LYN (UniProt P07948)
[8] = biological target: MAP2K1 (UniProt Q02750)
[9] = biological target: MAP2K2 (UniProt P36507)
[10] = biological target: MAP4K2 (UniProt Q12851)

Measured: kinase-Nluc reporter destabilization hit call

CCc1cc2c(cc1-c1cnn(CC(=O)N(C)C)c1)C(C)(C)c1[nH]c3cc(C#N)ccc3c1C2=O
active: [4]; 2.5 µM 1
inactive: [1]; 2.5 µM 0 | [2]; 2.5 µM 0 | [3]; 2.5 µM 0 | [5]; 2.5 µM 0 | [6]; 2.5 µM 0 | [7]; 2.5 µM 0 | [8]; 2.5 µM 0 | [9]; 2.5 µM 0 | [10]; 2.5 µM 0

CCOc1cc2ncc(C#N)c(Nc3ccc(F)c(Cl)c3)c2cc1NC(=O)/C=C/CN(C)C [Pelitinib]
inactive: [1]; 2.5 µM 0 | [2]; 2.5 µM 0 | [4]; 2.5 µM 0 | [5]; 2.5 µM 0 | [6]; 2.5 µM 0 | [7]; 2.5 µM 0 | [8]; 2.5 µM 0 | [9]; 2.5 µM 0 | [10]; 2.5 µM 0

CNC(=O)c1cc(Oc2ccc(NC(=O)Nc3ccc(Cl)c(C(F)(F)F)c3)cc2)ccn1 [Sorafenib (Tosylate)]
inactive: [1]; 10 µM 0 | [2]; 10 µM 0 | [4]; 10 µM 0 | [5]; 10 µM 0 | [6]; 10 µM 0 | [7]; 10 µM 0 | [8]; 10 µM 0 | [9]; 10 µM 0 | [10]; 10 µM 0

Cc1cc2ncnn2cc1Nc1ncc2c(n1)n(C1CCOCC1)c(=O)n2C
inactive: [1]; 10 µM 0 | [2]; 10 µM 0 | [3]; 10 µM 0 | [6]; 10 µM 0 | [9]; 10 µM 0

O=S(=O)(c1cccc2c(O)nccc12)N1CCCNCC1 [Hydroxyfasudil (hydrochloride)]
inactive: [1]; 10 µM 0 | [2]; 10 µM 0 | [4]; 10 µM 0 | [5]; 10 µM 0 | [6]; 10 µM 0 | [7]; 10 µM 0 | [8]; 10 µM 0 | [9]; 10 µM 0 | [10]; 10 µM 0

Cc1cnc(Nc2ccc(OCCN3CCCC3)cc2)nc1Nc1cccc(S(=O)(=O)NC(C)(C)C)c1 [Fedratinib (hydrochloride hydrate)]
inactive: [1]; 2.5 µM 0 | [2]; 2.5 µM 0 | [3]; 2.5 µM 0 | [4]; 2.5 µM 0 | [5]; 2.5 µM 0 | [6]; 2.5 µM 0 | [7]; 2.5 µM 0 | [8]; 2.5 µM 0 | [9]; 2.5 µM 0 | [10]; 2.5 µM 0

CCN(CC)CCNC(=O)c1c(C)[nH]c(/C=C2\C(=O)Nc3ccc(F)cc32)c1C [Sunitinib]
inactive: [1]; 2.5 µM 0 | [2]; 2.5 µM 0 | [4]; 2.5 µM 0 | [5]; 2.5 µM 0 | [6]; 2.5 µM 0 | [7]; 2.5 µM 0 | [8]; 2.5 µM 0 | [9]; 2.5 µM 0 | [10]; 2.5 µM 0

C=CC(=O)Nc1cc2c(Nc3ccc(F)c(Cl)c3)ncnc2cc1OCCCN1CCOCC1 [Canertinib (dihydrochloride)]
inactive: [1]; 2.5 µM 0 | [2]; 2.5 µM 0 | [4]; 2.5 µM 0 | [5]; 2.5 µM 0 | [6]; 2.5 µM 0 | [7]; 2.5 µM 0 | [8]; 2.5 µM 0 | [9]; 2.5 µM 0 | [10]; 2.5 µM 0

O=C(NCCCNc1nc(Nc2cccc(CN3CCOCC3)c2)ncc1C1CC1)C1CCC1
inactive: [1]; 10 µM 0 | [2]; 10 µM 0 | [3]; 10 µM 0 | [4]; 10 µM 0 | [5]; 10 µM 0 | [6]; 10 µM 0 | [8]; 10 µM 0 | [9]; 10 µM 0 | [10]; 10 µM 0
